Measurements taken from PubChem BioAssay AID2662 (National Center for Advancing Translational Sciences (NCATS), 2010).
Where “and” joins values, the source holds several entries; their conditions need not be identical. Equal values may be shown once. The campaign covered roughly 290,000 compounds. About 110 (0.038%) were called active. The inconclusive results got no clear call from the source; some entries with a clear call stand among them for comparison. Calls follow the shape of the dose curve; as a rule, active = well fitted inhibition curve with a large enough effect in the polarisation, with a control signal flat (not every such curve was filed as active); inconclusive = small, poorly fitted or top-dose-only effect, or effect the other way, or a change in a side signal; inactive = no such curve, though single readings can be large or run the other way; the % refers to the polarisation. Potencies beside an inconclusive call are fits to weak or partial responses and may not hold up. “Side channel” marks fits to a control or component signal instead of the main read-out.

Chains of the proteins cited; added tags and fusions are not shown.
UniProt Q03164, whole entry, looked up: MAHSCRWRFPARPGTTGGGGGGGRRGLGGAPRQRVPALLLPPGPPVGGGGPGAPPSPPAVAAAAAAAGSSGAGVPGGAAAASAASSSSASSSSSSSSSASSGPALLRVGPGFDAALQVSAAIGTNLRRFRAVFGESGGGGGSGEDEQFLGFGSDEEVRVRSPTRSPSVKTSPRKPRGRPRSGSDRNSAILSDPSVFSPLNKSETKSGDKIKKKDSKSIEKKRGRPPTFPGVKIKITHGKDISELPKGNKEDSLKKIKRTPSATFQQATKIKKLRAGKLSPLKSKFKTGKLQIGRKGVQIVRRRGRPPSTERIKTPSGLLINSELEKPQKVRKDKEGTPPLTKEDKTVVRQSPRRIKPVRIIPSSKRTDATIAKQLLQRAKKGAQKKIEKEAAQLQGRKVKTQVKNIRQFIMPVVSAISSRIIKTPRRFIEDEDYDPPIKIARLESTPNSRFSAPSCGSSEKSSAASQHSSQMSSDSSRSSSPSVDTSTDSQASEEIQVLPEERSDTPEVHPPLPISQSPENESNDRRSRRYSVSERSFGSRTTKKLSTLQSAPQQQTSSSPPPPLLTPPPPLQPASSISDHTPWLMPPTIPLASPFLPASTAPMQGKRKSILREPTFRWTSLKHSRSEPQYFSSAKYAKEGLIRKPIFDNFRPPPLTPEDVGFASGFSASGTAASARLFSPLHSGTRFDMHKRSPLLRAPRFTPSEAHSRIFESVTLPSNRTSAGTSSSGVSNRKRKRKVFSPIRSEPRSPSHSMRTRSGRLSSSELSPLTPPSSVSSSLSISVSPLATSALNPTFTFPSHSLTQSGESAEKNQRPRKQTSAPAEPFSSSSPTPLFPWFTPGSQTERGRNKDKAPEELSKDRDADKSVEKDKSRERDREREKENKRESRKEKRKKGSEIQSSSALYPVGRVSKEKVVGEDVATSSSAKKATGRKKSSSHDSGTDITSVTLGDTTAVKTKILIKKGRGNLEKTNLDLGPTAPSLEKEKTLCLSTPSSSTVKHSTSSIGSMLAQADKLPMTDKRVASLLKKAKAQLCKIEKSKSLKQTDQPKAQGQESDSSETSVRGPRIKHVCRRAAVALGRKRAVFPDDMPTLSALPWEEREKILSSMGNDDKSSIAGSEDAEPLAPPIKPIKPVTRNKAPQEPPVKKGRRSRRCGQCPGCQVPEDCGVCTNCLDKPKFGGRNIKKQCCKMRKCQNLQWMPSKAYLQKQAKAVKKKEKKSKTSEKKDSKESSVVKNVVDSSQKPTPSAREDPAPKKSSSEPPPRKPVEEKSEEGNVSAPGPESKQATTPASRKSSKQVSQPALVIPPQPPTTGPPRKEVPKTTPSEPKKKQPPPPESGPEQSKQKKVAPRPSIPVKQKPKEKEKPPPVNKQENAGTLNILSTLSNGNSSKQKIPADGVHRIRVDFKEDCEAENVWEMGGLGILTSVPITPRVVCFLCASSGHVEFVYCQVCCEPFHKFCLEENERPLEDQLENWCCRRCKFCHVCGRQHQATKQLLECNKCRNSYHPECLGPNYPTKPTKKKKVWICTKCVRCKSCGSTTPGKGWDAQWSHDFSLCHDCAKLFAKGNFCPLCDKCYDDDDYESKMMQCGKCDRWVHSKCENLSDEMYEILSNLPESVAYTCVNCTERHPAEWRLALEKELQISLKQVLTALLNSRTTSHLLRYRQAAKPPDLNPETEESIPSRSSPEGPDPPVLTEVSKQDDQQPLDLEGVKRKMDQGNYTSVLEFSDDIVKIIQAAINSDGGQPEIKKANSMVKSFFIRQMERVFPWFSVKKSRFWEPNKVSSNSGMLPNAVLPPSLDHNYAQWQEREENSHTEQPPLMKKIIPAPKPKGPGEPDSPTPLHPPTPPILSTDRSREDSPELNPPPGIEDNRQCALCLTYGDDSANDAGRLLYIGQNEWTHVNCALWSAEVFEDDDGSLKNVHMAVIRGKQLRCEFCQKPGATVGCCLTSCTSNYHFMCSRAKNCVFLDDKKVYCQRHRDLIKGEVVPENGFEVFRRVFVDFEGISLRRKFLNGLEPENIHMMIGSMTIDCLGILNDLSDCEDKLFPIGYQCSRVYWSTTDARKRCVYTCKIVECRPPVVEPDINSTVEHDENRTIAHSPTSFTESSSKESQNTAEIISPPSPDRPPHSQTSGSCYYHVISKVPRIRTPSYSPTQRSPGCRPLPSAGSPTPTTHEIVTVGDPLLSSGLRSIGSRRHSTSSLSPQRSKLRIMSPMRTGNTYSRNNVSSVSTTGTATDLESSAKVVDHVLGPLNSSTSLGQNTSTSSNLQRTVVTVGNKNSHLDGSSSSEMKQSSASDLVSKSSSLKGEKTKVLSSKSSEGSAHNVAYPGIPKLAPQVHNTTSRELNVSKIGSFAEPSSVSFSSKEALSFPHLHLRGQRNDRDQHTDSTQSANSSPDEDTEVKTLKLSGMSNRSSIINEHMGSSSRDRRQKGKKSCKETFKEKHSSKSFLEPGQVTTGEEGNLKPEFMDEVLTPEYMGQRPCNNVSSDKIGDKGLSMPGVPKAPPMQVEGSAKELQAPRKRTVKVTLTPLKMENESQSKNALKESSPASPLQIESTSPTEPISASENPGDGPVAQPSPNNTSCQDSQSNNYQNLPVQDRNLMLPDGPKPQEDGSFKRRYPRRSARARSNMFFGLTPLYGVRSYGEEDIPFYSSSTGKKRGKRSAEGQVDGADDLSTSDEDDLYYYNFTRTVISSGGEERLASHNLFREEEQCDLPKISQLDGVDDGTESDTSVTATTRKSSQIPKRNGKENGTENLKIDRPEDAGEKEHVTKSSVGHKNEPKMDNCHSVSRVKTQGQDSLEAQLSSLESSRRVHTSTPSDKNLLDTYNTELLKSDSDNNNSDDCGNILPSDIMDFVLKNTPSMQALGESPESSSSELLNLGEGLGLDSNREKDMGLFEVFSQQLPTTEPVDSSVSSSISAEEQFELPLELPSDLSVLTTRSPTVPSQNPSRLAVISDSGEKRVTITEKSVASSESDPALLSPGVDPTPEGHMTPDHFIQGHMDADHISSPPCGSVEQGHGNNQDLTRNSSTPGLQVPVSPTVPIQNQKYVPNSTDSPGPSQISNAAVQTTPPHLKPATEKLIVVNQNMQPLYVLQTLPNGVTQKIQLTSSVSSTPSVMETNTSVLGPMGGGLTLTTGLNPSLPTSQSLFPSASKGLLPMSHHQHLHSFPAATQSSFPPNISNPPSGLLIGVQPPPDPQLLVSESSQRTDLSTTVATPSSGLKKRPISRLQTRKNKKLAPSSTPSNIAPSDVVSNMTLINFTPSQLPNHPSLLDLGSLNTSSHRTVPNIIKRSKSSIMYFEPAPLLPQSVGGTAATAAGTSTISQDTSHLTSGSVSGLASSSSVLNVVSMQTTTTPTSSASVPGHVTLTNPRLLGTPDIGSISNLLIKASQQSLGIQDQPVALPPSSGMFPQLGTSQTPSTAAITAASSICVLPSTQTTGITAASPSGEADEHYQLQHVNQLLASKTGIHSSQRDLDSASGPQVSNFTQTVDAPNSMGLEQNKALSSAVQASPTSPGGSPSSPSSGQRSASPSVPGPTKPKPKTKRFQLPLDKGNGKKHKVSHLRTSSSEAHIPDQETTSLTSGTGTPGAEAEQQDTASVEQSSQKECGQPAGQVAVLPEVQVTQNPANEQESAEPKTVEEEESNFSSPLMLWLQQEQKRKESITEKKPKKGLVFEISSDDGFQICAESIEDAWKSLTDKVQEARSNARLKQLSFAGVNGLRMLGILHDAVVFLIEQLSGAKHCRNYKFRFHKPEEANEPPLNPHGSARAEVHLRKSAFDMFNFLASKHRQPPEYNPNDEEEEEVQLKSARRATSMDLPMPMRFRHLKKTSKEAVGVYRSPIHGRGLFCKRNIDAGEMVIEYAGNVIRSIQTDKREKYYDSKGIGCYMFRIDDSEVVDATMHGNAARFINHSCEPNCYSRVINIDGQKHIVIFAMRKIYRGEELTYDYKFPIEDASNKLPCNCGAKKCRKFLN

target: Histone-lysine N-methyltransferase 2A (Homo sapiens) (UniProt Q03164); test: qHTS Fluorescence Polarization Assay for Inhibitors of MLL CXXC domain - DNA interaction; settings: MLL-CXXC / FITC-HOXA9 DNA fluorescence polarization; activity change, negative = inhibition: at 115 µM (top of the series)
In short: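 Fluorescence polarization: 7 uM MLL-CXXC (stock) preincubated 5 min with compounds, then 50 nM fluorescein-HOX-A9 DNA (stock) added; 30 min ambient. Buffer 50 mM Tris-HCl pH 7.5, 50 mM NaCl, 1 mM DTT, 0.05% BSA.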
Potency is read from the fitted curve at half-maximal effect.

Question: With `Cc1cccc(C)c1Nc1ncnc(N)c1[N+](=O)[O-]` as the compound, how does the Potency read?
Answer: Its Potency is inconclusive: 89.1 µM [fluorescent, side channel, single point].

Question: `COc1ccc(/C=C/c2nc(-c3ccccc3O)n[nH]2)cc1` was tested. Which Potency did it give?
Answer: Its Potency is inconclusive: 17.8 µM [inhibitor, full curve, poor fit].

Question: With `CC1=NOC(=O)/C1=C\c1ccc(-c2ccc(Cl)c(C(=O)O)c2)o1` as the compound, how does the Potency read?
Answer: The Potency was inconclusive: 10 µM [inhibitor, partial curve].

Question: `COc1ccc(C)cc1Nc1n[n+](C)c(-c2c3ccccc3cc3ccccc23)s1` was tested. Which Potency did it give?
Answer: Its Potency is inconclusive: 31.6 µM [fluorescent, partial curve].

Question: Which Potency does the source give for `O=C(/C=C\Nc1ccc(S(=O)(=O)Nc2ncccn2)cc1)c1cccc2ccccc12` here?
Answer: The Potency was inconclusive: 39.8 µM [inhibitor, single point].

Question: For `Cc1c(O)c2c3c(cccc3c1O)C(=O)N(c1ccccc1)C2=O`, which Potency is on record?
Answer: The Potency was inconclusive: 14.1 µM [fluorescent, side channel, single point].

Question: How did the Potency turn out when `CSc1nc(C(=O)N2CCCC(Nc3ccc(C)c(C)c3)C2)cs1` (configuration not stated) was run?
Answer: Its Potency is inconclusive: 14.1 µM [fluorescent, side channel, single point].

Question: With `O=C(COC(=O)c1ccc2[nH]c3c(c2c1)CCCC3)Nc1ccccc1Cl` as the compound, how does the “activity change, negative = inhibition” value read?
Answer: The value was inactive: -0.0502%.

Question: For `O=C(CSc1nnc(CNC(=O)c2ccccc2)o1)c1ccccc1`, which Potency is on record?
Answer: Its Potency is inconclusive: 15.8 µM [fluorescent, side channel, single point].

Question: How did the Potency turn out when `CCCc1cc(=O)oc2c3c(cc(OCC(=O)N[C@@H](CSC)C(=O)O)c12)OC(C)(C)CC3` was run?
Answer: The Potency was inconclusive: 14.1 µM [inhibitor, single point].

Question: `O=C(Nc1ccnn1C1CCN(Cc2ccc(O)c(Cl)c2)CC1)C1CCCC1` was tested. Which Potency did it give?
Answer: Its Potency is inconclusive: 8.91 µM [fluorescent, side channel, single point].

Question: For `C(#Cc1ccccc1)C[N+]1(CC#Cc2ccccc2)CCCC1`, which “activity change, negative = inhibition” value is on record?
Answer: The value was inactive: -0.676%.

Question: `CC(C)(C)[C@@H]1C=C(C(=O)NCc2ccccc2)O[C@H](OCc2ccc(CO)cc2)C1` was tested. Which Potency did it give?
Answer: The Potency was inconclusive: 35.5 µM [inhibitor, single point].

Question: With `COc1ccc(OC)c(NC(=O)NNC(=O)COc2ccc([N+](=O)[O-])cc2)c1` as the compound, how does the Potency read?
Answer: The Potency was inconclusive: 14.1 µM [quencher, side channel, single point].

Question: Which Potency does the source give for `Cn1c(=O)c2c(nc(N/N=C/c3cccnc3)n2Cc2ccccc2)n(C)c1=O` here?
Answer: The Potency was inconclusive: 100 µM [quencher, side channel, partial curve, poor fit].

Question: Which Potency does the source give for `COc1ccc(Cl)cc1Nc1nc(N)c2ccccc2n1` here?
Answer: Its Potency is inconclusive: 35.5 µM [quencher, side channel, partial curve, poor fit].

Question: `CCOc1nc(Nc2ccc(F)cc2)nc(N2CCN(c3ccc(OC)cc3)CC2)n1` was tested. Which “activity change, negative = inhibition” value did it give?
Answer: Its value is inactive: 15%.

Question: With `CC(C)c1ccc2c(c1)c(SC(C)(C)C)c(CC(C)(C)C(=O)O)n2Cc1ccc(Cl)cc1` as the compound, how does the Potency read?
Answer: Its Potency is inconclusive: 89.1 µM [inhibitor, single point].

Question: For `CCOC(=O)C1CCCN(C(=S)Nc2ccc(Nc3ccccc3)cc2)C1` (configuration not stated), which “activity change, negative = inhibition” value is on record?
Answer: The value was inactive: -6.87%.

Question: `CCO[C@@H]1OC(C(=O)NCc2ccccc2)=C[C@H](c2ccc(C(F)(F)F)cc2)[C@H]1CCCO` was tested. Which Potency did it give?
Answer: Its Potency is inconclusive: 35.5 µM [inhibitor, single point].

Question: Which “activity change, negative = inhibition” value does the source give for `CCOc1ccccc1N(CC(=O)Nc1ccc(S(=O)(=O)N2CCOCC2)cc1)S(=O)(=O)c1ccccc1` here?
Answer: The value was inactive: 2.85%.

Question: For `O=c1c2c3c(sc2ncn1Cc1ccc(F)cc1)CCC3`, which Potency is on record?
Answer: The Potency was inconclusive: 17.8 µM [quencher, side channel, partial curve].

Question: For `CN1CCc2c(sc3nc(SCC(=O)N4CCCCC4)n(-c4ccccc4)c(=O)c23)C1`, which Potency is on record?
Answer: The Potency was inconclusive: 31.6 µM [quencher, side channel, single point].

Question: Which Potency does the source give for `O=C(Nc1ncc(Cc2ccccc2Cl)s1)c1ccc(-c2cccc([N+](=O)[O-])c2)o1` here?
Answer: Its Potency is inconclusive: 3.16 µM [quencher, side channel, full curve, poor fit].

Question: `Cc1ccc(CNC(=O)C(c2ccccc2)c2ccccc2)cc1` was tested. Which “activity change, negative = inhibition” value did it give?
Answer: Its value is inactive: 6.33%.

Question: With `CC(=O)Nc1ccc(NC(=O)C2c3ccccc3Oc3ccccc32)cc1` as the compound, how does the activity change, negative = inhibition read?
Answer: The activity change, negative = inhibition was inconclusive: 6.44% [phenotype inactive].

Question: For `CCN(CCO)CCCC(C)Nc1ccnc2cc(Cl)ccc12` (configuration not stated), which “activity change, negative = inhibition” value is on record?
Answer: The value was inactive: 0.0418%.

Question: With `Cc1nc(Nc2ncc(C(=O)Nc3c(C)cccc3Cl)s2)cc(N2CCN(CCO)CC2)n1` as the compound, how does the “activity change, negative = inhibition” value read?
Answer: Its value is inactive: 5.64%.

Question: `CCCCCC(=O)N1CCN(CCN=CC2=C(O)CC(c3cccs3)CC2=O)CC1` (configuration not stated) was tested. Which “activity change, negative = inhibition” value did it give?
Answer: The value was inactive: -3.59%.

Question: `COc1ccc2c3c(cccc13)C(=O)CC2` was tested. Which Potency did it give?
Answer: Its Potency is inconclusive: 31.6 µM [fluorescent, side channel, partial curve].

Question: How did the Potency turn out when `C=CCN(C(=O)CCc1ccccc1OC)c1nc(-c2ccc(S(C)(=O)=O)cc2)cs1` was run?
Answer: The Potency was inconclusive: 15.8 µM [fluorescent, side channel, single point].

Question: `COc1cc(NC(=O)CN(C)CCOc2ccccc2)c(C)cc1[N+](=O)[O-]` was tested. Which Potency did it give?
Answer: The Potency was inconclusive: 7.94 µM [inhibitor, single point].

Question: `Cn1c(O)c(/C=N/NC(=O)c2cc3ccccc3cc2O)c2ccccc21` was tested. Which Potency did it give?
Answer: Its Potency is inconclusive: 10 µM [fluorescent, side channel, full curve].

Question: With `Cc1ccc(C)c(NS(=O)(=O)c2csc(C(N)=O)c2)c1` as the compound, how does the Potency read?
Answer: The Potency was inconclusive: 14.1 µM [fluorescent, side channel, single point].

Question: With `CCC(=O)Nc1nnc(S(=O)(=O)N(C)c2ccccc2)s1` as the compound, how does the Potency read?
Answer: Its Potency is inconclusive: 70.8 µM [quencher, side channel, single point].

Question: For `CC(C)=CCN1CCN(Cc2cccnc2)CC1CCO` (configuration not stated), which Potency is on record?
Answer: The Potency was inconclusive: 70.8 µM [fluorescent, side channel, single point].

Question: How did the Potency turn out when `O=C(Nc1nccs1)c1cc(-c2ccccc2)nn1-c1ccccc1` was run?
Answer: Its Potency is inconclusive: 63.1 µM [fluorescent, side channel, single point].

Question: For `COc1cc(/C=C2\Oc3cc(O)ccc3C2=O)ccc1O`, which Potency is on record?
Answer: The Potency was inconclusive: 70.8 µM [fluorescent, side channel, single point].

Question: `COc1ccc(NC(=O)c2nc[nH]c2C(=O)Nc2ccccc2C)cc1` was tested. Which Potency did it give?
Answer: Its Potency is inconclusive: 8.91 µM [fluorescent, side channel, single point].

Question: Which “activity change, negative = inhibition” value does the source give for `Cc1ccccc1NC(=O)CN1CCOCC1` here?
Answer: Its value is inactive: -1.38%.

Question: With `CC(C)(C)OC(=O)NCCc1nnc(SCC(=O)Nc2cccc(Cl)c2)o1` as the compound, how does the “activity change, negative = inhibition” value read?
Answer: Its value is inactive: 1.56%.

Question: With `O=C(O)c1cc2cc(Oc3ccccc3)ccc2[nH]1` as the compound, how does the Potency read?
Answer: The Potency was inconclusive: 35.5 µM [inhibitor, partial curve].

Question: Which “activity change, negative = inhibition” value does the source give for `FC(F)(F)c1cccc(-c2nc3nc(Cl)c(Cl)nc3[nH]2)c1` here?
Answer: Its value is inactive: 9.84%.

Question: For `CCOc1ccc(CN(C)CC(=O)NCc2ccccc2Cl)cc1`, which “activity change, negative = inhibition” value is on record?
Answer: Its value is inactive: 10.6%.

Question: `Cn1c(=O)c2c(ncn2CC(=O)NC2CCCCC2)n(C)c1=O` was tested. Which Potency did it give?
Answer: Its Potency is inconclusive: 8.91 µM [fluorescent, side channel, partial curve].

Question: How did the Potency turn out when `O=C(Oc1ccc2c3c(c(=O)oc2c1)CCCC3)c1cccs1` was run?
Answer: Its Potency is inconclusive: 63.1 µM [fluorescent, side channel, single point].

Question: How did the Potency turn out when `Cc1ccccc1CSc1nc(-c2ccccc2)cc(=O)[nH]1` was run?
Answer: Its Potency is inconclusive: 50.1 µM [inhibitor, single point].

Question: Which Potency does the source give for `CC(C(=O)N=Nc1c(O)[nH]c2ccccc12)n1cnc2ccccc2c1=O` (configuration not stated) here?
Answer: The Potency was inconclusive: 8.91 µM [fluorescent, side channel, single point].

Question: Which Potency does the source give for `O=C(Nc1ccc(Br)cc1)c1cnc[nH]1` here?
Answer: The Potency was inconclusive: 31.6 µM [fluorescent, side channel, partial curve].

Question: For `O=[N+]([O-])c1cc(Br)c2nsnc2c1N1CCOCC1`, which Potency is on record?
Answer: Its Potency is inconclusive: 89.1 µM [inhibitor, single point].

Question: Which Potency does the source give for `O=C(CSc1nnnn1-c1cccc2c1CCCC2)N1CCCC1` here?
Answer: The Potency was inconclusive: 31.6 µM [quencher, side channel, single point].

Question: For `C/C(=C\C=C(C#N)C#N)c1cc(C#N)c(N)o1`, which Potency is on record?
Answer: The Potency was inconclusive: 20 µM [fluorescent, side channel, partial curve].

Question: With `CCN1/C(=C/C=C/C=C/c2sc3ccccc3[n+]2CC)Sc2ccccc21` as the compound, how does the Potency read?
Answer: The Potency was “inactive and inconclusive: 20 µM [quencher, side channel, partial curve]”.

Question: `CCCCOc1ccc(-c2nnn(CC(=O)c3c[nH]c4ccccc34)n2)cc1` was tested. Which “activity change, negative = inhibition” value did it give?
Answer: Its value is inactive: 29.7%.

Question: Which Potency does the source give for `Cc1cnc(C(=O)OCC(=O)c2ccc(Cl)cc2)cn1` here?
Answer: Its Potency is inconclusive: 10 µM [fluorescent, side channel, single point].

Question: `Cc1ccccc1Cn1ccc(NC(=O)c2nn(C)cc2[N+](=O)[O-])n1` was tested. Which Potency did it give?
Answer: The Potency was inconclusive: 15.8 µM [fluorescent, side channel, single point].

Question: With `O=C(NCc1cccs1)Nc1cccs1` as the compound, how does the “activity change, negative = inhibition” value read?
Answer: Its value is inactive: -11.4%.

Question: With `Cn1cccc1/C=C1\SC(=S)N(NC(=O)c2ccc(Cl)cc2)C1=O` as the compound, how does the Potency read?
Answer: The Potency was inconclusive: 56.2 µM [fluorescent, side channel, single point].

Question: `O=c1[nH]c2cc3c(cc2cc1CN(CCO)S(=O)(=O)c1ccccc1Cl)OCCO3` was tested. Which “activity change, negative = inhibition” value did it give?
Answer: The value was inactive: 4.1%.

Question: With `COc1ccc(C(=O)Nc2ccc3nc(N4CCN(C)CC4)cc(C)c3c2)c(OC)c1` as the compound, how does the Potency read?
Answer: Its Potency is inconclusive: 70.8 µM [quencher, side channel, single point].

Question: How did the Potency turn out when `CC1(C)CC(=O)C2=C(C1)OC(N)=C(C#N)C2c1cn(-c2ccccc2)nc1-c1ccc(F)cc1` (configuration not stated) was run?
Answer: The Potency was inconclusive: 3.98 µM [inhibitor, partial curve, poor fit].

Question: Which Potency does the source give for `O=C(NN=C1CCCCCC1)c1cn(-c2ccccc2)nc1-c1ccccc1` here?
Answer: Its Potency is inconclusive: 56.2 µM [fluorescent, side channel, single point].
